PubChem BioAssay AID1259405 – NCATS, 2018

Aim: 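Mouse-designed siRNAs used to find CHO productivity engineering targets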 (primary screen)
Cells: Chinese hamster CHO-K1 ovary cells with stable secreted eGFP expression
Knock-down reagent: single siRNA against mouse genes, 0.8 pmol siRNA per well (2 µl of 400 nM stock)
Timing: 3 days
Read-out: 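Per-well intracellular GFP measured by laser scanning cytometry, plus viability from ATP luminescence, each relative to plate median of non-targeting control wells, in %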
Direction: GFP, % of control: higher = more GFP per well, higher productivity; viability (ATP), % of control: higher = more viable cells (more ATP)
Rule for the call: 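a knock-down is called active if GFP reaches 120% or more of non-targeting control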
Here is a random part of about 50,000 deposited reagents. Of all reagents, about 4,000 (8%) got an active call. 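Mouse siRNA library applied to hamster cells; one well for each siRNA.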 Unmarked entries are inactive.

gene	PubChem SID	GFP, % of control	viability (ATP), % of control
Etf1 (GeneID 225363)	SID363569349	67.4	74.3
Etf1 (GeneID 225363)	SID363577093	59.8	50.3
Etf1 (GeneID 225363)	SID363578501	85.3	29.5
Tektip1 (GeneID 432479)	SID363542325	124 (active)	76.3
Tektip1 (GeneID 432479)	SID363551816	134 (active)	59.4
Tektip1 (GeneID 432479)	SID363559421	55.3	88.6
Trib3 (GeneID 228775)	SID363571323	91.3	83.3
Trib3 (GeneID 228775)	SID363571675	86.5	88
Trib3 (GeneID 228775)	SID363572027	64.8	77.3
Med21 (GeneID 108098)	SID363573586	93.3	104
Med21 (GeneID 108098)	SID363581330	87.7	78.5
Med21 (GeneID 108098)	SID363583794	60.2	81.2
Slc6a5 (GeneID 104245)	SID363574745	83.8	79.6
Slc6a5 (GeneID 104245)	SID363575801	54.8	53.9
Slc6a5 (GeneID 104245)	SID363580377	78	75.5
Gas2l1 (GeneID 78926)	SID363542552	88	77.3
Gas2l1 (GeneID 78926)	SID363552043	62.5	59
Gas2l1 (GeneID 78926)	SID363559648	80	101
Ugt1a9 (GeneID 394434)	SID363545367	107	73.5
Ugt1a9 (GeneID 394434)	SID363548880	107	107
Ugt1a9 (GeneID 394434)	SID363562686	41.8	61.5
Arl4a (GeneID 11861)	SID363541471	30.8	44
Arl4a (GeneID 11861)	SID363556098	72.3	89
Arl4a (GeneID 11861)	SID363566387	62.4	50.9
Kin (GeneID 16588)	SID363540229	51.4	71.1
Kin (GeneID 16588)	SID363541981	50.2	67.3
Kin (GeneID 16588)	SID363566897	71.4	83.7
Rap1a (GeneID 109905)	SID363541665	67.9	67.4
Rap1a (GeneID 109905)	SID363553257	56.2	53.3
Rap1a (GeneID 109905)	SID363566581	105	70.4
Tmem268 (GeneID 230279)	SID363552144	112	90.3
Tmem268 (GeneID 230279)	SID363585280	81	86.2
Tmem268 (GeneID 230279)	SID363585631	67.6	67
Ndufv3 (GeneID 78330)	SID363540541	56.1	61
Ndufv3 (GeneID 78330)	SID363542992	99.3	66.1
Ndufv3 (GeneID 78330)	SID363552485	93.2	59
Rhoc (GeneID 11853)	SID363570260	57.5	71.9
Rhoc (GeneID 11853)	SID363576596	83.6	98.5
Rhoc (GeneID 11853)	SID363579764	40.3	53.1
Rapgef6 (GeneID 192786)	SID363570177	37.8	43.2
Rapgef6 (GeneID 192786)	SID363576513	72.5	75.4
Rapgef6 (GeneID 192786)	SID363579681	73.6	67.6
B3gnt9 (GeneID 97440)	SID363545389	34.9	44.4
B3gnt9 (GeneID 97440)	SID363548902	70.8	86.1
B3gnt9 (GeneID 97440)	SID363562708	52.9	32.5
Taf7 (GeneID 24074)	SID363573573	79.5	82.2
Taf7 (GeneID 24074)	SID363581317	70.2	82.7
Taf7 (GeneID 24074)	SID363583781	71.7	86.2
Gmpr (GeneID 66355)	SID363572861	87.8	113
Gmpr (GeneID 66355)	SID363577437	131 (active)	90.2
Gmpr (GeneID 66355)	SID363580957	85.7	78.8
Cfap96 (GeneID 69479)	SID363543652	53.6	76.2
Cfap96 (GeneID 69479)	SID363553145	81.5	67.9
Cfap96 (GeneID 69479)	SID363558993	62.6	82.2
A230052G05Rik (GeneID 442796)	SID363542961	47.2	47.1
A230052G05Rik (GeneID 442796)	SID363546478	49.1	104
A230052G05Rik (GeneID 442796)	SID363548234	82.4	96.1
Tdpoz2 (GeneID 399673)	SID363547516	117	81.3
Tdpoz2 (GeneID 399673)	SID363558285	77.8	76.9
Tdpoz2 (GeneID 399673)	SID363560043	67.4	79.7
Zfp329 (GeneID 67230)	SID363555250	81.1	79.8
Zfp329 (GeneID 67230)	SID363563911	102	72
Zfp329 (GeneID 67230)	SID363587457	87.3	84.7
Syt10 (GeneID 54526)	SID363582502	92.5	173
Syt10 (GeneID 54526)	SID363584262	86.9	76.3
Slc25a29 (GeneID 214663)	SID363545737	126 (active)	74.1
Slc25a29 (GeneID 214663)	SID363549250	119	104
Slc25a29 (GeneID 214663)	SID363563056	51.9	34.9
Kif5c (GeneID 16574)	SID363540926	32.9	50.2
Kif5c (GeneID 16574)	SID363555553	63.6	72.9
Kif5c (GeneID 16574)	SID363565842	81.9	52.3
Trim67 (GeneID 330863)	SID363541907	46.6	56.6
Trim67 (GeneID 330863)	SID363553499	74.7	113
Trim67 (GeneID 330863)	SID363566823	90.1	32.5
Serping1 (GeneID 12258)	SID363573148	93.7	107
Serping1 (GeneID 12258)	SID363577724	105	89.9
Serping1 (GeneID 12258)	SID363581244	45.9	32.7
Zdhhc4 (GeneID 72881)	SID363556631	63	41.5
Zdhhc4 (GeneID 72881)	SID363563535	44.3	67
Zdhhc4 (GeneID 72881)	SID363587081	60.1	63.2
Rtn4r (GeneID 65079)	SID363568685	108	94.1
Rtn4r (GeneID 65079)	SID363576077	61.8	68.1
Rtn4r (GeneID 65079)	SID363578893	167 (active)	73.5
Zfpm2 (GeneID 22762)	SID363572318	73.2	95.7
Zfpm2 (GeneID 22762)	SID363574078	68.2	95.4

Sorted by “viability (ATP), % of control” (high to low): some entries from above.
gene	PubChem SID	GFP, % of control	viability (ATP), % of control
Gmpr (GeneID 66355)	SID363572861	87.8	113
A230052G05Rik (GeneID 442796)	SID363546478	49.1	104
A230052G05Rik (GeneID 442796)	SID363548234	82.4	96.1
Gmpr (GeneID 66355)	SID363577437	131 (active)	90.2
Taf7 (GeneID 24074)	SID363583781	71.7	86.2
Cfap96 (GeneID 69479)	SID363558993	62.6	82.2
Tdpoz2 (GeneID 399673)	SID363547516	117	81.3
Gmpr (GeneID 66355)	SID363580957	85.7	78.8
Tdpoz2 (GeneID 399673)	SID363558285	77.8	76.9
Cfap96 (GeneID 69479)	SID363543652	53.6	76.2
Cfap96 (GeneID 69479)	SID363553145	81.5	67.9
A230052G05Rik (GeneID 442796)	SID363542961	47.2	47.1
